The whole screen tested about 360,000 compounds, of which about 610 (0.17%) were called active. Inconclusive results, whose numbers are uncertain, are shown with a selection of clear calls. Rule as the data show it: active = inhibition above about 30%; inconclusive = no clear call, values can overlap the other calls; inactive = below that.
What follows are molecules tested on Botulinum neurotoxin type A light chain protease (Clostridium botulinum A str. ATCC 3502) (assay: blockers of BoNT/A LC substrate cleavage – biochemical, flow cytometry, MLPCN library, primary screen (AID 588499; also: plate controls were buffer without enzyme for full effect and enzyme alone for no effect)). Settings: multiplex microsphere protease substrate cleavage, at 10 µM, stronger effect = higher value.

Structure (SMILES) | inhibition
Cc1ccc(/C=C2\SC(=S)N(Cc3ccccc3)C2=O)o1 | active: 47.7%
CCOC(=O)CCP(=O)(O)C(C)(O)c1ccccc1 (configuration not stated) | inactive: 1.9%
CC1CCCCN1C(=O)Nc1cccc(Cl)c1 (configuration not stated) | inconclusive: -299%
COC(=O)c1ccc(C(=O)OC)c(NC(=S)N2CCN(C(=O)C3CCCO3)CC2)c1 (configuration not stated) | inconclusive: -7.3%
Cc1ccccc1C(=O)NCCNc1ccc([N+](=O)[O-])cc1 | inactive: 0%
O=C(COC(=O)CC1CC2CCC1C2)Nc1ccc(F)cc1Cl (configuration not stated) | inactive: 0.9%
CCc1ccccc1NC(=O)Cn1nc(C(F)(F)F)cc1C1CC1 | inconclusive: -0.4%
CCCn1nnc(NC(=O)c2ccc3c(c2)OCO3)n1 | inconclusive: 16.3%
COc1ccc(CNc2nc3nc(C)cc(C)n3n2)cc1OC | inconclusive: 0.5%
CC(C(=O)OCC(=O)NC1CCCCC1)N1C(=O)c2ccccc2C1=O (configuration not stated) | inactive: 0.2%
Cc1nccn1CC(=O)N/N=C/c1cccs1 | inconclusive: -3.4%
CCCNC(=O)C1(C)CCN(Cc2csc3ccccc23)C1 (configuration not stated) | inactive: 0.3%
Cn1c(=O)[nH]c2cc3ccccc3cc21 | inconclusive: 2.4%
O=C(NCCC(=O)N1CCOCCOCCOCCOCC1)OCc1ccccc1 | inconclusive: 1%
Nc1nc(-c2c[nH]c3ccccc23)cs1 | inconclusive: 26.6%
O=C(Nn1c(O)c(C=C2N=c3ccccc3=N2)sc1=S)c1ccc(Cl)cc1 | inconclusive: 127%
O=C(NCc1ccccc1)c1ccc(-c2ccc(F)cc2)o1 | inconclusive: -1.4%
O=C(NCC1CCCO1)c1ccc(CS(=O)(=O)c2ccc(Cl)cc2)o1 (configuration not stated) | inactive: 0.6%
COc1ccc(/C=N/NC(=O)c2ccn[nH]2)cc1Cn1cc([N+](=O)[O-])cn1 | inconclusive: -2.1%
Cc1cnc(C(=O)OCC(=O)c2ccc[nH]2)cn1 | inconclusive: 10.8%
Cc1ccc2c(c1)-c1c(ssc1=S)C(C)(C)N2C(=O)c1ccco1 | inconclusive: 1.2%
Cc1nn(CC(=O)NCc2cccs2)c(=O)c2nn(-c3ccccc3)c(C)c12 | inactive: 0.9%
COC(=O)c1ccc(C(=O)OC)c(NC(=O)c2cnc3n(c2=O)CCS3)c1 | inconclusive: 1.1%
O=C(Nc1ccccc1F)c1ccc2sc([C@H]3C[C@H](O)[C@@H](CO)O3)nc2c1 | inactive: 0.4%

Structure (SMILES) | inhibition
Cn1cc([N+](=O)[O-])c(C(=O)NC2CCCC2)n1 | inactive: -0.7%
O=c1[nH]c2cc3ccccc3cc2nc1-c1nnnn1Cc1ccccc1 | inactive: 4.8%
CC1CCC(NC(=O)Cn2c(=O)[nH]c3ccsc3c2=O)CC1 (configuration not stated) | inconclusive: -4.6%
O=c1nccc(N/N=C/c2ccccc2O)[nH]1 | inactive: -2.2%
CCCC[N+](CC#CCO)(CC#Cc1ccccc1)CCCC | inconclusive: -2.9%
O=C(COc1ccccc1Cl)Nc1ccc(NC(=O)c2ccco2)cc1 | inactive: 1.1%
CC(=O)N1CCN(c2ccnc3cc(Cl)ccc23)CC1 | inconclusive: 11.3%
COc1cccc(C(=O)NC2=NCCS2)c1OC | inconclusive: 5.7%
Cc1cc(=O)n2nc(N3CCC(C(=O)NCCc4ccc(Cl)cc4)CC3)sc2n1 | inactive: 2.3%
COc1ccc(NC(=O)CSc2nc(NS(=O)(=O)c3ccc(C)cc3)cc(=O)[nH]2)cc1 | inconclusive: 4%
Cc1ccnc(NS(=O)(=O)c2ccc3ccccc3c2)n1 | inactive: 6%
COc1cccc(NS(=O)(=O)c2ccc(NC(C)=O)cc2)c1 | inconclusive: -0.5%
N#Cc1c(N)n(CCNC(=O)c2ccccc2)c2nc3ccccc3nc12 | inactive: 0.8%
COc1ccc(N2CCC(N3CCN(C)C(CCO)C3)CC2)cc1 (configuration not stated) | inconclusive: 0.9%
Cc1cccc(CSc2nnc([C@@H]3CCCN3C(=O)OC(C)(C)C)o2)c1 | inconclusive: 16.4%
O=C(c1ccccc1)N1CCN(C2C3CC4CC(C3)CC2C4)CC1 (configuration not stated) | inactive: -0.4%
Cc1cc(NCc2ccccc2)c2ccccc2n1 | inconclusive: -0.4%
CCOC(=O)c1c(CSC(=N)N)n(-c2ccccc2)c2cc(Br)c(OC(C)=O)cc12 | inconclusive: -26.1%
O=C(O)COc1ccc(S(=O)(=O)c2ccc(OCC(=O)O)cc2)cc1 | inconclusive: -2.1%
COc1ccc(C)cc1NS(=O)(=O)c1cc(C)ccc1C | inconclusive: 2.6%
c1ccc(-c2nnc(SCc3nc4ccccc4[nH]3)o2)cc1 | inconclusive: 4.3%
Cc1noc(C)c1COc1cccc(C(=O)OC(C)C(=O)Nc2ccc3c(c2)OCO3)c1 (configuration not stated) | inactive: 3.8%
CCOC(=O)C1CCN(C(=O)c2ccccc2)c2scc(-c3ccccc3)c2C1=O (configuration not stated) | inactive: 0%

Grouped by structure: the compounds so far containing two or more sulfur atoms (4)
Structure (SMILES) | inhibition
Cc1ccc(/C=C2\SC(=S)N(Cc3ccccc3)C2=O)o1 | active: 47.7%
O=C(Nn1c(O)c(C=C2N=c3ccccc3=N2)sc1=S)c1ccc(Cl)cc1 | inconclusive: 127%
Cc1ccc2c(c1)-c1c(ssc1=S)C(C)(C)N2C(=O)c1ccco1 | inconclusive: 1.2%
COc1ccc(NC(=O)CSc2nc(NS(=O)(=O)c3ccc(C)cc3)cc(=O)[nH]2)cc1 | inconclusive: 4%

From PubChem BioAssay AID588499 (NMMLSC, 2011)
